Measured values as given in publication PMC12407099.

Protein sequences, listed by entry. Tags and fused reporters are not part of them. Lines headed by an entry give the natural chain unless they say otherwise; changes in a name come on top.
UniProt Q8BIQ5: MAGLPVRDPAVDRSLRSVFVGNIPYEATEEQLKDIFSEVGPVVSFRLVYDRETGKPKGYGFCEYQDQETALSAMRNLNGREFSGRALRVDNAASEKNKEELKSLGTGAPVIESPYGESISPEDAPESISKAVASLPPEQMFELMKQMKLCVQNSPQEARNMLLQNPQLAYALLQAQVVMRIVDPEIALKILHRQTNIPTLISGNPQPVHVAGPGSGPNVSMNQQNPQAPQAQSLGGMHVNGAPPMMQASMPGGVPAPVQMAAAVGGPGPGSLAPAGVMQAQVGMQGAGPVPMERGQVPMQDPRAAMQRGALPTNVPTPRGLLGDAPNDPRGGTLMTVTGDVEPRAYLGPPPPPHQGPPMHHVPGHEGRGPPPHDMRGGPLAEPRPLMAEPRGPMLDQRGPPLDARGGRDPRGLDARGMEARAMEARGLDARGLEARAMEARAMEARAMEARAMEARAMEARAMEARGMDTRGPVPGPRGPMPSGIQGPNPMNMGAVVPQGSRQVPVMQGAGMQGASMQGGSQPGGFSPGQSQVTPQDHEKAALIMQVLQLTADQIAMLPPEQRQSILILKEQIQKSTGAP

What was measured:
Experiment in all cases: co-IP; Flag-tagged Hnrnpl or Cstf2 constructs (WT or mutant) expressed in HEK293T, harvested 48 h after transfection; clarified lysate with protease and RNase inhibitors; Flag agarose beads, 4°C, 4 h to overnight; mild wash buffer; western blot
[1] = target: RRM-deleted CstF64 mutant, C-terminally Flag-tagged (mouse) (UniProt Q8BIQ5)
[2] = target: hnRNPL with deletion of vRRM2 (UniProt Q8R081)
[3] = target: hnRNPL with deletion of vRRM3 (UniProt Q8R081)

Row | binding [1] | binding [2] | binding [3] | Binder
1 | binds |  |  | hnRNPL, endogenous in HEK293T (protein, UniProt P14866 1-589) MSRRLLPRAEKRRRRLEQRQQPDEQRRRSGAMVKMAAAGGGGGGGRYYGGGSEGGRAPKRLKTDNAGDQHGGGGGGGGGAGAAGGGGGGENYDDPHKTPASPVVHIRGLIDGVVEADLVEALQEFGPISYVVVMPKKRQALVEFEDVLGACNAVNYAADNQIYIAGHPAFVNYSTSQKISRPGDSDDSRSVNSVLLFTILNPIYSITTDVLYTICNPCGPVQRIVIFRKNGVQAMVEFDSVQSAQRAKASLNGADIYSGCCTLKIEYAKPTRLNVFKNDQDTWDYTNPNLSGQGDPGSNPNKRQRQPPLLGDHPAEYGGPHGGYHSHYHDEGYGPPPPHYEGRRMGPPVGGHRRGPSRYGPQYGHPPPPPPPPEYGPHADSPVLMVYGLDQSKMNCDRVFNVFCLYGNVEKVKFMKSKPGAAMVEMADGYAVDRAITHLNNNFMFGQKLNVCVSKQPAIMPGQSYGLEDGSCSYKDFSESRNNRFSTPEQAAKNRIQHPSNVLHFFNAPLEVTEENFFEICDELGVKRPSSVKVFSGKSERSSSGLLEWESKSDALETLGFLNHYQMKNPNGPYPYTLKLCFSTAQHAS
2 |  | binds | binds | CstF64 (polyadenylation/cleavage stimulating factor), endogenous in HEK293T (protein, UniProt P33240 1-577) MAGLTVRDPAVDRSLRSVFVGNIPYEATEEQLKDIFSEVGPVVSFRLVYDRETGKPKGYGFCEYQDQETALSAMRNLNGREFSGRALRVDNAASEKNKEELKSLGTGAPVIESPYGETISPEDAPESISKAVASLPPEQMFELMKQMKLCVQNSPQEARNMLLQNPQLAYALLQAQVVMRIVDPEIALKILHRQTNIPTLIAGNPQPVHGAGPGSGSNVSMNQQNPQAPQAQSLGGMHVNGAPPLMQASMQGGVPAPGQMPAAVTGPGPGSLAPGGGMQAQVGMPGSGPVSMERGQVPMQDPRAAMQRGSLPANVPTPRGLLGDAPNDPRGGTLLSVTGEVEPRGYLGPPHQGPPMHHVPGHESRGPPPHELRGGPLPEPRPLMAEPRGPMLDQRGPPLDGRGGRDPRGIDARGMEARAMEARGLDARGLEARAMEARAMEARAMEARAMEARAMEVRGMEARGMDTRGPVPGPRGPIPSGMQGPSPINMGAVVPQGSRQVPVMQGTGMQGASIQGGSQPGGFSPGQNQVTPQDHEKAALIMQVLQLTADQIAMLPPEQRQSILILKEQIQKSTGAP

These are yes or no findings as the source states them, for the method shown. Binding seen in cells or lysates may run through a third protein. A result given as binding can be weak or reduced; the word gives no strength.
